# Laboratory results reported in US20250109165A1, “CYCLOPHILIN INHIBITORS AND USES THEREOF” (The Broad Institute, Inc., priority 2022, published 2025).
# Some of these results come from one statement about several compounds together.
# Test system: CypD
# Test: Chymotrypsin coupled prolyl-isomerase assay
# Format: biochemical, human
# Settings: for selectivity for CypD over CypA: CypD versus wild-type CypA; for selectivity for inhibiting CypD over CypE and CypB: over the most closely related cyclophilins
# Method: Chymotrypsin coupled prolyl-isomerase assay: Adapting a previously described protocol^53, an Agilent Bravo Velocity 11 with a 384ST head, 90 μL of assay buffer (25 mM HEPES pH 7.3, 100 mM NaCl, 0.01% Triton X-100) containing 5.28 nM cyclophilin was added into a flat, clear-bottom, black 384 well plate pre-chilled in a Corning CoolBox™ at 2-3° C. 5 μL of compound pre-dissolved in 5% DMSO/assay buffer was then added to appropriate wells and incubated at 2-3° C. for 5 minutes. 5 μL of 0.5 mM α-chymotrypsin from bovine pancreas in 20% 1 mM HCl/Assay Buffer (Type II, lyophilized powder, Millipore-Sigma) was then added to each well and incubated at 2-3° C. for 5 minutes. Plate was then quickly transferred to a FLIPR Tetra High-Throughput Cellular Screening System (Molecular Devices). Using the FLIPR's internal liquid handling system, 1 μL of 0.5 mM Suc-AAPF-AMC (Chymotrypsin Substrate II, Millipore-Sigma) dissolved in 0.55 M LiCl/2,2,2-trifluoroethanol was added to each well, which was then mixed for 5 secconds, followed by immediate fluorescence measurements every 1 sec for 330 seconds using a 360-380 nm excitation LED module and a 400-460 emission filter. Final concentrations of the plate include 5 nM cyclophilin, 0.25% DMSO, 25 μM α-chymotrypsin, 5 μM Suc-AAPF-AMC. Raw fluorescence data was analyzed by non-linear regression analysis with Prism 9 by fitting one-phase association curves to each well. Rate constants calculated for each well (s^−1) were then normalized to substrate only (no prolyl isomerase) and enzyme+substrate only controls.
Structure (SMILES),inhibition potency difference for CypD versus wild-type CypB,selectivity for CypD against the remaining six cyclophilins [fold],selectivity for CypD over CypA and PPIL1,selectivity for CypD over CypA [fold],selectivity for inhibiting CypD over CypE and CypB
NCCOCCNC(=O)[C@@H]1CCNC(=O)/C=C/C(=O)N2CCC[C@](Cc3ccccc3)(C2)C(=O)N[C@@H](Cc2ccc(-c3ccc(CC(C(=O)O)C(=O)O)cc3)cc2)C(=O)NCc2ccccc2CC(=O)N1 [Compound B52],15-20 fold,> 750,100- to 500 fold,> 100,15- to 20 fold
NCCOCCNC(=O)[C@@H]1CCNC(=O)/C=C/C(=O)N2CCC[C@](Cc3ccccc3)(C2)C(=O)N[C@@H](Cc2ccc(-c3ccc(C(CC(=O)O)CC(=O)O)cc3)cc2)C(=O)NCc2ccccc2CC(=O)N1 [Compound B53],15-20 fold,> 750,100- to 500 fold,> 100,15- to 20 fold
